For at least one compound, name, drawing or mass did not settle the structure.
Legend:
[1] = test system: neuropathic pain model by partial sciatic nerve ligation; assay: Thermal paw withdrawal test, morphine resistance after nerve injury; assay type: in vivo, C57BL male mice; conditions: compound 0.5 nmol i.t. from 3 days after injury; morphine 30 nmol i.pl. 5 days after injury
[2] = test system: neuropathic pain model by partial sciatic nerve ligation; assay: Electrical stimulation-induced paw withdrawal (EPW) test, hypoesthesia after nerve injury; assay type: in vivo, C57BL male mice

Compound | peripheral morphine analgesia after nerve injury, thermal paw withdrawal test [1] | statistical analysis of pain threshold values at 3 days versus 5 days after nerve injury, EPW test ([2]; 0.5 nmol i.t. once per day) | effect on hypoesthesia (pain threshold in response to C-fiber stimulation), EPW test ([2]; 0.5 nmol i.t. once per day from 3 days after nerve injury, observed 4 and 5 days after injury) | effect on hypoesthesia (pain threshold) after systemic administration ([2]; 5 mg/kg intraperitoneally, on day 3, 4 and 5 after nerve injury, n=3)
Cc1cc(C(=O)N2CC(C)CC(C)C2)ccc1[N+](=O)[O-] (centres unmarked) [compound 155, 3,5-dimethylpiperidyl 3-methyl-4-nitrophenyl ketone] | significant recovery of morphine analgesia |  |  | 
CC1CC(C)CN(CC(=O)c2ccc(OC(F)F)cc2)C1 (centres unmarked) [compound A28, 1-[4-(difluoromethoxy)phenyl]-2-(3,5-dimethylpiperidyl)ethan-1-one] | morphine analgesia almost equivalent to that in sham-veh group | significant difference | tendency of recovery from hypoesthesia | time-dependent recovery from hypoesthesia

Reference: patent publication US9206125B2, “Use of compound binding to mSin3B that specifically binds to neuron restrictive silencer factor (NRSF)” (PUBLIC UNIVERSITY CORPORATION YOKOHAMA CITY UNIVERSITY, priority 2010, dated 2015)
